Test results as given in article PMC4424400.
These are yes or no findings as the source states them, for the method shown. In cells and extracts the contact can be indirect. Some binding calls cover weakened binding; strength is not graded here. Where a sequence is shown, tags or fusion partners need not be part of it.

The chains behind the UniProt entries cited, without tags or fusion partners.
UniProt P04775: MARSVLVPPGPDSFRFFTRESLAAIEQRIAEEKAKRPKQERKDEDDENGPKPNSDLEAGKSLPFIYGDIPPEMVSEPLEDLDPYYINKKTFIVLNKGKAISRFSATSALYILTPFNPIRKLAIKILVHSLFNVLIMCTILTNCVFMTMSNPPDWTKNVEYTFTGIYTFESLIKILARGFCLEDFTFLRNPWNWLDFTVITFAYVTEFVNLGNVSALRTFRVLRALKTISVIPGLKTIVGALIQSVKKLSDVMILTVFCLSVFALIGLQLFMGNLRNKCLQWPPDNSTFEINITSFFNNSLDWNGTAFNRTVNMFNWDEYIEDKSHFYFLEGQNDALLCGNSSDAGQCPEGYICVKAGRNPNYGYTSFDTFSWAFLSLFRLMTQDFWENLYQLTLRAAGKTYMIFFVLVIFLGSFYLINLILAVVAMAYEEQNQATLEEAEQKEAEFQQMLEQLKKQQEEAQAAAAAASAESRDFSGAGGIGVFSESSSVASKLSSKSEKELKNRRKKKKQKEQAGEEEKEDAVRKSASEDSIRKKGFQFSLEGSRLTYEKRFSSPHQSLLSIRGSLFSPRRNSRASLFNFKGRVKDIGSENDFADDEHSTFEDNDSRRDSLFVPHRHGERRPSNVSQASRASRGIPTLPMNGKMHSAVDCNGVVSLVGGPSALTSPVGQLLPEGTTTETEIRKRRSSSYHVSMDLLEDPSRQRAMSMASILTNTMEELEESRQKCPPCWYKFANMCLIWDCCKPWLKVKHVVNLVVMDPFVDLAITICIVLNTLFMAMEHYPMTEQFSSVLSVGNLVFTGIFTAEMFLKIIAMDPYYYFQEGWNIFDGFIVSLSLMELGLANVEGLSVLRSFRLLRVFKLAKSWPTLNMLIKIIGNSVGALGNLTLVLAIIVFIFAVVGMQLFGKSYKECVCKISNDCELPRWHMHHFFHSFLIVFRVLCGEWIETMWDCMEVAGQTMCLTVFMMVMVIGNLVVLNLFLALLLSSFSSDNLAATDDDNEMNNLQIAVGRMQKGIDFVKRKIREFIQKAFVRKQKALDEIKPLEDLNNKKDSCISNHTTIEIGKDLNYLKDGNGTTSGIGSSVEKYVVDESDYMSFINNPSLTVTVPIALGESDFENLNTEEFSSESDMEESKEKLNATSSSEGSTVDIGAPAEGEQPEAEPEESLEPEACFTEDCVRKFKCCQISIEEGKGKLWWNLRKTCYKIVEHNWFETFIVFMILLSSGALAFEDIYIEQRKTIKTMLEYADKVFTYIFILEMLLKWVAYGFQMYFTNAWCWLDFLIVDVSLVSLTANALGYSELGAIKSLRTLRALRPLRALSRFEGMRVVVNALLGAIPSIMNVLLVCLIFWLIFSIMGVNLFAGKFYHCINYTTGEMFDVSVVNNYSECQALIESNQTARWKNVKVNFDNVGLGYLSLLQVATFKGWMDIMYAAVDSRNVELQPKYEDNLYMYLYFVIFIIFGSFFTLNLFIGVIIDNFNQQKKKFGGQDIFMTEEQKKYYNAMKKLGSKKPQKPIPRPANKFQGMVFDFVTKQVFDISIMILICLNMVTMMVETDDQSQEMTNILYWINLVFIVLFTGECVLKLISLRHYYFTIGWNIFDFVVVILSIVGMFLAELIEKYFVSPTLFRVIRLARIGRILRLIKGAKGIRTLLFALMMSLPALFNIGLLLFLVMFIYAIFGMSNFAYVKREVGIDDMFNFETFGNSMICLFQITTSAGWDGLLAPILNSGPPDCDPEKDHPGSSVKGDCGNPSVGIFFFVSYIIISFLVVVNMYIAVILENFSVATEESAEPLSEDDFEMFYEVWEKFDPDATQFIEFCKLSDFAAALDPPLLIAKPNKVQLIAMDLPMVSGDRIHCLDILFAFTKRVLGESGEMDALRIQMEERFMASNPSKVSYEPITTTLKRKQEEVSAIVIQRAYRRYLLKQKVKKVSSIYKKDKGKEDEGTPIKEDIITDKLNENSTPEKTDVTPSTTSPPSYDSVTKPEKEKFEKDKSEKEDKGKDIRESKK

Target: T1, myc-FGF12 (myc-fgf12-1b fusion construct) (UniProt P61329)
T1 sequence: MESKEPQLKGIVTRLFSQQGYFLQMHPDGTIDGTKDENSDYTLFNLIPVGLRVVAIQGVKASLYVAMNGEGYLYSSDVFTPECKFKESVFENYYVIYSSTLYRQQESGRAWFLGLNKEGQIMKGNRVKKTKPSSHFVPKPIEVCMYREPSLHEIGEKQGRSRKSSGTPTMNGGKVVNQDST
Experiment: co-IP; lysates of HEK-293 cells stably expressing rat Nav1.2, transfected with myc-FGF12 or myc-sprouty; immunoprecipitation with anti-myc antibody; blots probed with PanNav and myc antibodies

Rat Nav1.2 alpha subunit stably expressed in HEK-293 cells (from UniProt P04775 1-2005)
binding: binds
